These are yes or no findings as the source states them, for the method shown. Binding seen in cells or lysates may run through a third protein. Some results given as binding are weak or reduced against the parent protein; the word gives no strength.
Target: Ace2S-HA (short form of C. albicans Ace2, translation from methionine-55, under the MET3 promoter) (Candida albicans) (UniProt Q59RR0)
Test: co-IP; anti-HA μMACS precipitation of HA-tagged Ace2 forms from yeast cell extracts; lysis buffer HEPES 50 mM, 70 mM potassium acetate, 5 mM magnesium acetate, 1% Triton X-100, 10% glycerol; blots with anti-HA and anti-myc

The chains behind the UniProt entries cited, without tags or fusion partners. Residues count along the entry.
UniProt Q59RR0, residues 55-783: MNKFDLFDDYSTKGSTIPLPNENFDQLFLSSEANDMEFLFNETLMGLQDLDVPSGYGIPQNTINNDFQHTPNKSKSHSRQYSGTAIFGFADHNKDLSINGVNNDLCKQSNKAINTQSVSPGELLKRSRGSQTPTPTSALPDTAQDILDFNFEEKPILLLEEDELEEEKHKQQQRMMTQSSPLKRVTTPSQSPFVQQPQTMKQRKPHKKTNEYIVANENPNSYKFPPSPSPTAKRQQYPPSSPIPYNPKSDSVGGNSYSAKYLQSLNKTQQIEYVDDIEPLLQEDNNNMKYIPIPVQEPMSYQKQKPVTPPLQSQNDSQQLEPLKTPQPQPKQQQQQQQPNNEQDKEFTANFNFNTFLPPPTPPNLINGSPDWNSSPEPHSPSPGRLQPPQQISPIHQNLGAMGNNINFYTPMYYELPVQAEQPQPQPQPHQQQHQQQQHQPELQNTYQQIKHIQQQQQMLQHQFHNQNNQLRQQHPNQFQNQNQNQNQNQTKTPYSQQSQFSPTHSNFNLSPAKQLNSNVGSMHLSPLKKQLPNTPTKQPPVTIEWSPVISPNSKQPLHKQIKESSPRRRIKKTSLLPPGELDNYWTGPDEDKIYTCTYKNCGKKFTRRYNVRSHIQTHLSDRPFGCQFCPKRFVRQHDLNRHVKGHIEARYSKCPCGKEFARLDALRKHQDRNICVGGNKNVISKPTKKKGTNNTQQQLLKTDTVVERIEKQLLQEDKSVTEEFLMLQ
UniProt Q5AP53: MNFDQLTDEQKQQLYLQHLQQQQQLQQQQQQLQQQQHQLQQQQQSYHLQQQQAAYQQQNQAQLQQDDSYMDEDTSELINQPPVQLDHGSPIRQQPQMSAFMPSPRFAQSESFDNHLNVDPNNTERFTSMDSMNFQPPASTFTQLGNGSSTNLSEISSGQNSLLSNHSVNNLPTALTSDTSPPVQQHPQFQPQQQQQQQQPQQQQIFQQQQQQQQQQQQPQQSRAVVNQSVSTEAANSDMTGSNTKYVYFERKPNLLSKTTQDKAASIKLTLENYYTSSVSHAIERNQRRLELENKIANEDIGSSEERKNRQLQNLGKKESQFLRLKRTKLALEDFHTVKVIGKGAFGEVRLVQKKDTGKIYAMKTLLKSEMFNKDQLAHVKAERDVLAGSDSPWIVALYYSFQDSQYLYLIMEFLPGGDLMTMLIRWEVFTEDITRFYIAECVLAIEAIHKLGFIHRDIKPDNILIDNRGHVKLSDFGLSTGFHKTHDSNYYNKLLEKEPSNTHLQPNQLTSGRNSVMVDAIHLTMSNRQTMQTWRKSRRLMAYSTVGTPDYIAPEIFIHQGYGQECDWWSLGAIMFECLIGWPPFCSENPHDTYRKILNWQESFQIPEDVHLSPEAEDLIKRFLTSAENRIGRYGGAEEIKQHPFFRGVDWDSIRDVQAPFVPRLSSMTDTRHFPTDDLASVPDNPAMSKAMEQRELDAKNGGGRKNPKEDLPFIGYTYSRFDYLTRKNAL

Cbk1-myc (C. albicans NDR kinase Cbk1 tagged with c-myc at the C-terminus) (from UniProt Q5AP53 1-732) (enzyme)
binding: binds

Reference: PMC4398349
